Measurements as given in the supplement of paper PMC10338343.
± gives the standard deviation. The list shows a part of the results, in another mix than the full data. The uncertainty is large for many entries.

These sequences were tested on EfPiwi piRISC loaded with piRNA #1 (26 nt) (assay: pre-steady-state target cleavage rate (min^-1); guide: piRNA #1 5'p-UGAGGUAGUAGGUUGUAUAGUAUCCA; MIWI and MILI are mouse PIWI proteins and EfPiwi is from a freshwater sponge; tags in brackets are library labels; higher = faster piRNA-guided slicing of the target). Conditions: auxiliary factor: 500 nM Ephydatia muelleri Gtsf1.
Outline: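 The pre-steady-state cleavage rate was calculated from a burst-and-steady-state fit. Data came from Cleave-'n-Seq, in which […] transcribed, DNA-blocked target RNA library was mixed with 1 nM active affinity-purified piRISC carrying one synthetic guide, with or without 500 nM GTSF1 partner protein, in HEPES–potassium acetate buffer at 33 °C for 0–8 or 0–960 min. Uncleaved targets were sequenced and normalised to depth and to weakly complementary targets, three trials were pooled, and k3 was capped at 0.0001 min^-1.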

Sequence	pre-steady-state target cleavage rate
GGAGACCAUACUAUACAAACUACUACCUCA	0.00853 ± 0.0037
GGAGACCUAUGAUAUGUUGCUACCACCUCA	0.000353 ± 0.0058
GGAGAGGAUACUUUUCAACCUACUACCUCA	0.00409 ± 0.004
GGAGACCUAACUAUACUACCUACUACCUGA	0.00244 ± 0.0037
GGAGACCAUACUAUACAACCUAGUACCACA	0.00199 ± 0.0028
GGAGACCUAUGUUUACAACCUAGUACCUCA	0.00204 ± 0.0034
GGAGACCUAACUAUACUACCUACUUCCUCA	0.00112 ± 0.0049
GGAGAGGAUACUAUACAACCUACUACCUCC [g2:g25:cont:t1C]	0.12 ± 0.046
GGAGACCUAUCUAUACAACCUACUACAUCA	0.00393 ± 0.0044
GGAGAGGAUGACUAUACAACCUACUACCUCA	0.01 ± 0.006
GGAGACCUUACUAUUCAACCUACUAGCUCA	0.000437 ± 0.0075
GGAGACCAUAGCUAUACAACCUACUACCUCA	0.0108 ± 0.0051
GGAGACCUUACUAUACAACCUACUACCCA	0.00518 ± 0.0043
GGAGACCUAUGUAACAACCUACUACCUCA	0.0014 ± 0.0056
GGAGACCUAUGAUAUGUUCCUACUACGCUCA	0.000172 ± 0.028
GGAGUGGAUACUAUAUAACCUACUACCUCA	0.117 ± 0.045

Taken from above:
pre-steady-state target cleavage rate with GGAGACCAUAGCUAUACAACCUACUACCUCA is entered as 0.0108 ± 0.0051
pre-steady-state target cleavage rate with GGAGAGGAUACUUUUCAACCUACUACCUCA is entered as 0.00409 ± 0.004
